Experimental findings from article PMC5498334 are described below.

In test [1] the target is T1, CENP J (891–1160 aa), expressed in COS-7 cells (mouse) (UniProt Q569L8).
T1 sequence: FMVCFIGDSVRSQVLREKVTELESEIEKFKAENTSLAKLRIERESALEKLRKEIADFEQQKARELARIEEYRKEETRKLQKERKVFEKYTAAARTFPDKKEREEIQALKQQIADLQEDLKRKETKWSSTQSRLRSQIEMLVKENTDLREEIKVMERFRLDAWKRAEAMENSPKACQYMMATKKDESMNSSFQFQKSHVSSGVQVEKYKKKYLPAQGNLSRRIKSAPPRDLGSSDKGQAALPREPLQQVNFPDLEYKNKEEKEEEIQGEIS
In words: co-IP; co-transfection and immunoprecipitation in COS-7 cells, Western blot. (A western blot detects proteins with antibodies after separation by electrophoresis.)

Test [2] concerns the target T2, CENP F (2461–2998 aa), expressed in COS-7 cells (mouse) (UniProt Q155P7).
T2 sequence: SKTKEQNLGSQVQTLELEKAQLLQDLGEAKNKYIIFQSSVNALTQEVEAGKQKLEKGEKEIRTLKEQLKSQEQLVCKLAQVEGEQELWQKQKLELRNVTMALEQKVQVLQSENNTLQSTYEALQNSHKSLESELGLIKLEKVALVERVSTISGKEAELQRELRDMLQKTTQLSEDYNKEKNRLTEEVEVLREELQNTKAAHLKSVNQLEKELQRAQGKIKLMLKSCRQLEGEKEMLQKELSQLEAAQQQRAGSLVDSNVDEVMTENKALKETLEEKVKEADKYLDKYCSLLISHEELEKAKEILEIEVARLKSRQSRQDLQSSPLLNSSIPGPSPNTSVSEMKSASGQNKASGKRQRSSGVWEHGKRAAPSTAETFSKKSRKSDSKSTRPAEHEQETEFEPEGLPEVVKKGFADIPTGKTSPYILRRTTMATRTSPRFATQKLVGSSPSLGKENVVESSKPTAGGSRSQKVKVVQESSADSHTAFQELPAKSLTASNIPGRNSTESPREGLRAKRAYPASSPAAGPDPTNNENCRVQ
The test is described as above.

Test [3] concerns the target T3, CENP F (2461–2998 aa), C-terminal domain, yeast two-hybrid bait (mouse) (UniProt Q155P7).
T3 sequence: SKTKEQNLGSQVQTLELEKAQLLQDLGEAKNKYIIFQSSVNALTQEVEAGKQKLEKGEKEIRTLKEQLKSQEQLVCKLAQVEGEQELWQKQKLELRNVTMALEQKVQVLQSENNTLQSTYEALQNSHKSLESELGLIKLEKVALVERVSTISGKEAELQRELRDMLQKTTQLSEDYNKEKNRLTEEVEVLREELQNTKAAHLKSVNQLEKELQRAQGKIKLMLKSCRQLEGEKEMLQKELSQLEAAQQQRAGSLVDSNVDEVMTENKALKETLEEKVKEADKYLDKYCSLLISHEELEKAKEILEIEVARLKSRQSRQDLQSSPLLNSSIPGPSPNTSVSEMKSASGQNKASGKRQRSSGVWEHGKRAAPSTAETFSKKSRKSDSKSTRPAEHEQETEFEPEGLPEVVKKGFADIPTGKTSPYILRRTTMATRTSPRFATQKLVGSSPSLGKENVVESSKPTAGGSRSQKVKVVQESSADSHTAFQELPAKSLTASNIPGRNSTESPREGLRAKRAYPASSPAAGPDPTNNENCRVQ
In words: two-hybrid; CENP J or CENP F constructs as bait, mSYCP2 NTR, ARLD or SLD as prey (by the legend); p53-T antigen and lam-T as system controls.

The target of test [4] is CENP J wild type (1–1344 aa), yeast two-hybrid bait (mouse) (UniProt Q569L8). Described as above.
The target in test [5] is T4, CENP J (891–1160 aa), C-terminal coiled coil region, yeast two-hybrid bait (mouse) (UniProt Q569L8).
T4 sequence: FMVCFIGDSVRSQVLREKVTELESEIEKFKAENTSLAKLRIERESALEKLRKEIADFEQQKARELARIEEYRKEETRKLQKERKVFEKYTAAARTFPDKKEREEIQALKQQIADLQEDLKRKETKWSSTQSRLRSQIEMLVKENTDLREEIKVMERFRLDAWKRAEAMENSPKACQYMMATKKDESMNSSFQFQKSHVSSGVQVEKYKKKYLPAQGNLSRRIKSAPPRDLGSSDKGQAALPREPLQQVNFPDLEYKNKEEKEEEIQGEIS
Described as above.

The target of test [6] is CENP F wild type (1–2998 aa), yeast two-hybrid bait (mouse) (UniProt Q155P7). Described as above.

No constants are given. Whether binding was seen depends on the method and setting. For part of these data: Binding seen in cells or lysates may run through a third protein. Some results given as binding are weak or reduced against the parent protein; the word gives no strength. For part of these data: Sequences can lack the tags named with a protein.

B1: SYCP2 NTD-8x Myc (domain or fragment, UniProt Q9CUU3 1-390)
chain: MPVRPDLQQLEKCIDDALRKNDFKPLLALLQIDICEDVKIKCSKQFLRKLDDLICRELNKKDIQTVSSILISIGRCSKNIFILGQAGLQTMIKQGLVQKMVSWFENSKEIILNQQQSKDEAVMNMIEDLFDLLMVIYDISDEGKNQVLESFIPQICALVIDSRVNFCIQQEALKKMNLMLDRIPQDANKILSNQEMLTLMSNMGERILDVGDYELQVGIVEALCRMTTEKRRQELAYEWFSMDFIANAFKEIKDCEFETDCRIFLNLVNGILGDKRRVYTFPCLSAFLGKYELQIPSDEKLEEFWIDFNLGSHTLSFYIAGDEEDHQWEAVTVPEEKVQMYNIEVRESKKLLTLTLKNIVKISKKEGKELLFYFDESLEITNVTKKVFGG
Consider B1, for which the binding result in test [1] and in test [2] was “binds” each time.

B2: mouse SYCP2 N-terminal region (1–390 aa), yeast two-hybrid prey (domain or fragment, UniProt Q9CUU3 1-390)
chain: MPVRPDLQQLEKCIDDALRKNDFKPLLALLQIDICEDVKIKCSKQFLRKLDDLICRELNKKDIQTVSSILISIGRCSKNIFILGQAGLQTMIKQGLVQKMVSWFENSKEIILNQQQSKDEAVMNMIEDLFDLLMVIYDISDEGKNQVLESFIPQICALVIDSRVNFCIQQEALKKMNLMLDRIPQDANKILSNQEMLTLMSNMGERILDVGDYELQVGIVEALCRMTTEKRRQELAYEWFSMDFIANAFKEIKDCEFETDCRIFLNLVNGILGDKRRVYTFPCLSAFLGKYELQIPSDEKLEEFWIDFNLGSHTLSFYIAGDEEDHQWEAVTVPEEKVQMYNIEVRESKKLLTLTLKNIVKISKKEGKELLFYFDESLEITNVTKKVFGG
With B2, the binding entry was “binds” in test [3], “binds” in test [4], “binds” in test [5] and “binds weakly” in test [6].
